From the supplement of paper PMC12889115
The other results are listed elsewhere or left out. These are raw signals, not scaled to a control.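 First-pass screen: polymyxin B was added at a level that permeabilizes the Salmonella outer membrane while sparing the inner membrane. DMSO wells, with and without polymyxin B, defined maximum growth. Because plates differed from one another, each plate's data were ranked separately and the compounds with the lowest OD600 were carried forward as hits.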

System: Salmonella enterica serovar Typhimurium SL1344
Assay: bacterial growth OD600 after 18 h with compound and polymyxin B; higher = more bacterial growth (less inhibition)
Details: 50 µM, Mueller-Hinton broth

Structure (SMILES) | bacterial growth OD600 (polymyxin B 0.75 µg/mL) | bacterial growth OD600 (polymyxin B 1 µg/mL)
OC(CCc1ccccc1)c1ccc2c(c1)CN(Cc1ccco1)CCO2 (stereo unspecified) | 0.84 | –
CC1CCN(Cc2nnnn2CC(=O)NCCc2c[nH]c3ccccc23)CC1 | 0.785 | –
COc1cccc(C(=O)NCC2Cc3cc(-c4ccnc(SC)n4)cc(Cl)c3O2)c1 (stereo unspecified) | 0.013 | –
Cc1ccccc1N1CCN(C2CCCN(C(=O)c3ccccn3)C2)CC1 (stereo unspecified) | – | 0.894
c1ccc(-c2n[nH]cc2CN2CCc3onc(-c4ccccc4)c3C2)cc1 | 0.349 | –
Cc1c(C(C)NC(=O)c2ccc(OC3CCN(C(=O)C4CC4)CC3)cc2)cnn1C (stereo unspecified) | – | 0.842
Cc1cccc(C(=O)NC2CC(=O)N(Cc3cccc4ccccc34)C2)n1 (stereo unspecified) | – | 0.83
COc1ccc(CNC(C)c2cnn(-c3ccc(F)cc3F)c2C)c(F)c1 (stereo unspecified) | – | 1.06
CCN1CCN(C2(C(=O)N(C)CCC3CCCCO3)Cc3ccccc3C2)CC1 (stereo unspecified) | 0.854 | –
CCOC(=O)C1CCCN(C(=O)CCc2nnc(-c3ccc(C(C)=O)s3)o2)C1 (stereo unspecified) | 0.761 | –
CN(c1ncccc1CNC(=O)c1ccc2[nH]cnc2c1)C1CCCCC1 | – | 0.91
CCOC(=O)CCNC(=O)N1CCC(CC2CCCCO2)(C(=O)OCC)CC1 (stereo unspecified) | – | 0.904
CCN1CCN(C2(C(=O)NCc3ccc(C)s3)Cc3ccccc3C2)CC1 | 0.836 | –
O=C(CCc1cnccn1)N1CCCC(CCc2ccccc2)C1 (stereo unspecified) | 0.824 | –
CO[C@H]1[C@H](NC(=O)c2ccco2)c2ccccc2C12CCN(CC1=CC[C@H]3C[C@@H]1C3(C)C)CC2 | 0.842 | –
Cc1nc(C(C)NC2CCN(c3ccc(NC(=O)CCCCc4ccccc4)cc3)CC2)cs1 (stereo unspecified) | 0.796 | –

Structure (SMILES) | bacterial growth OD600 (polymyxin B 0.75 µg/mL) | bacterial growth OD600 (polymyxin B 1 µg/mL)
CC(=O)NCC(=O)N1CCCC(C(=O)Nc2cccc(-c3ccc(F)cc3)c2)C1 (stereo unspecified) | – | 0.993
COc1cc(CC2(CCC(=O)NCCc3ccccc3OC)CCC(=O)N2)ccc1F (stereo unspecified) | 0.738 | –
CN1CCc2cc(CNC(=O)CC3C(=O)NCCN3Cc3cccnc3)ccc21 (stereo unspecified) | – | 0.89
COc1ccc(-c2noc(CN(C)Cc3ccc(C)cc3)n2)c(OC)c1OC | – | 0.933
Cc1cccnc1-c1cccc2c1OC(CNC(=O)CC(C)(C)C)C2 (stereo unspecified) | 0.802 | –
CCOC(=O)C1(CCCc2ccccc2)CCN(C(=O)c2ccc(OC)o2)CC1 | – | 0.001
O=C(NCc1cc(F)cc(F)c1)C1CCCN(C2CCN(C(=O)C3CC3)CC2)C1 (stereo unspecified) | 0.785 | –
Cc1cccc(CN2CCC(n3nccc3NC(=O)C3CCCC3)CC2)n1 | – | 1.06
O=C(Cn1cnnn1)N1CCc2onc(C(c3ccccc3)c3ccccc3)c2C1 | 0.165 | –
COc1cccc(-c2n[nH]c3c2CN(C(=O)c2cc(C)n(C)n2)CC3)c1 | 0.739 | –
CCOC(=O)C1CCCCN1C(=O)c1ccc2nc(Cc3ccc(OC)cc3)oc2c1 (stereo unspecified) | – | 0.758
CCOC(=O)C1(CCCc2ccccc2)CCCN(C(=O)c2ccnn2C)C1 (stereo unspecified) | – | 0.858
CC(C)CC(=O)Nc1ccnn1C1CCN(C(=O)Cc2n[nH]c3ccccc23)CC1 | 0.855 | –
O=C(Nc1ccnn1C1CCN(C(=O)Cc2c(F)ccc(F)c2F)CC1)C1CC1 | – | 0.952
O=C(CN1Cc2ccccc2OC(c2ccccc2F)C1)NCCCn1nnc2ccccc21 (stereo unspecified) | 0.334 | –

3 structures from above, sorted by length of the SMILES, low to high.
Structure (SMILES) | bacterial growth OD600 (polymyxin B 0.75 µg/mL) | bacterial growth OD600 (polymyxin B 1 µg/mL)
Cc1cccc(CN2CCC(n3nccc3NC(=O)C3CCCC3)CC2)n1 | – | 1.06
CCOC(=O)C1(CCCc2ccccc2)CCN(C(=O)c2ccc(OC)o2)CC1 | – | 0.001
CCOC(=O)C1CCCCN1C(=O)c1ccc2nc(Cc3ccc(OC)cc3)oc2c1 (stereo unspecified) | – | 0.758
